Source: patent US8927598B2, “Treating oncogenic Ras driven cancers” (Duke University, priority 2008, dated 2015)
At least one compound was matched to its structure with a doubt left.

Assays:
wildtype Ras = test: Working Example I: testing for wildtype Ras nitrosylation in the patient; assay type: in vivo, human; conditions: intravenous, blood level of 300 nm for two weeks
pancreatic cancer = test: Working Example I: patient with pancreatic cancer given wortmannin intravenously; assay type: in vivo, human; conditions: intravenous, blood level of 300 nm for two weeks

Question: How did the “Wildtype Ras nitrosylation compared to status before administration” value (wildtype Ras) turn out when `COC[C@H]1OC(=O)c2coc3c2[C@@]1(C)C1=C(C3=O)[C@@H]2CCC(=O)[C@@]2(C)C[C@H]1OC(C)=O` [wortmannin] was run?
Answer: reduction

Question: And the CA19-9 levels (pancreatic cancer)?
Answer: CA19-9 levels decrease

Question: And the Pain (pancreatic cancer)?
Answer: Pain is ameliorated
